Reference: the supplement of paper PMC4604168 (melanoma cell lines)
This is one part of the list. Repeats are few or missing, and single values can be far off.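 Cells were imaged in 1,536-well plates, and nuclei stained with an antibody against cleaved PARP were counted against all DNA-stained nuclei to give the apoptosis fraction. Screening doses were chosen to leave most cells alive, and resting and induced cleaved-PARP levels differ strongly between cell lines.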

Key:
Experiment in all cases: cleaved PARP positive nuclei fraction relative to DMSO control; melanoma cells; higher = more apoptosis
Conditions in all cases: library dose: low library concentration; 72 h
MZ2-MEL = tested on: MZ2-MEL
MeWo = tested on: MeWo
RPMI7951 = tested on: RPMI7951
RVH-421 = tested on: RVH-421
SkMel28 = tested on: SkMel28
SkMel2 = tested on: SkMel2
SkMel30 = tested on: SkMel30
SkMel5 = tested on: SkMel5
UACC257 = tested on: UACC257
UACC62 = tested on: UACC62
WM115 = tested on: WM115
WM1716 = tested on: WM1716
WM1745 = tested on: WM1745
WM3526 = tested on: WM3526
WM3619 = tested on: WM3619
WM451Lu = tested on: WM451Lu

Row | Structure (SMILES) | cleaved PARP positive nuclei fraction (MZ2-MEL) [%] | cleaved PARP positive nuclei fraction (MeWo) [%] | cleaved PARP positive nuclei fraction (RPMI7951) [%] | cleaved PARP positive nuclei fraction (RVH-421) [%] | cleaved PARP positive nuclei fraction (SkMel28) [%] | cleaved PARP positive nuclei fraction (SkMel2) [%] | cleaved PARP positive nuclei fraction (SkMel30) [%] | cleaved PARP positive nuclei fraction (SkMel5) [%] | cleaved PARP positive nuclei fraction (UACC257) [%] | cleaved PARP positive nuclei fraction (UACC62) [%] | cleaved PARP positive nuclei fraction (WM115) [%] | cleaved PARP positive nuclei fraction (WM1716) [%] | cleaved PARP positive nuclei fraction (WM1745) [%] | cleaved PARP positive nuclei fraction (WM3526) [%] | cleaved PARP positive nuclei fraction (WM3619) [%] | cleaved PARP positive nuclei fraction (WM451Lu) [%]
1 | Cc1cc(Nc2cc(N3CCN(C)CC3)nc(/C=C/c3ccccc3)n2)n[nH]1 + c1cc(-c2cnn3cc(-c4ccc(OCCN5CCCCC5)cc4)cnc23)ccn1 [Dorsomorphin] (first compound 0.04 µM, partner dose 0.4 µM) | 166 | 71.2 | 134 | 29.9 | 39.9 | 63.7 | 122 | 101 | 42.4 | 92 | 92.3 | 417 | 102 | 68.6 | 67.2 | 47.2
2 | O=C(O)[C@@H]1[O][Sb](=[O])([O][Sb]2(=[O])[O][C@H]([C@H](O)CO)[C@H](O)[C@H](C(=O)O)[O]2)[O][C@H]([C@H](O)CO)[C@@H]1O (stereo partly drawn) [stibogluconate] + COc1cc(Nc2ncc(F)c(Nc3ccc4c(n3)NC(=O)C(C)(C)O4)n2)cc(OC)c1OC [Tamatinib] (first compound 2 µM, partner dose 0.4 µM) | 187 | 280 | 75.5 | 94.4 | 62.1 | 134 | 186 | 146 | 215 | 126 | 51.3 | 62.8 | 161 | 66.9 | 98.6 | 102
3 | C[C@@H](Oc1cc(-c2cnn(C3CCNCC3)c2)cnc1N)c1c(Cl)ccc(F)c1Cl [Crizotinib] + CC1(C)NC(=O)N(c2ccc([N+](=O)[O-])c(C(F)(F)F)c2)C1=O [nilutamide] (first compound 0.2 µM, partner dose 1 µM) | 92.2 | 107 | 28 | 80.7 | 96.6 | 86 | 204 | 38 | 162 | 77.8 | 217 | 57.4 | 83.4 | 96.5 | 101 | 118
4 | CN1CCN(c2ccc3nc(-c4c(N)c5c(F)cccc5[nH]c4=O)[nH]c3c2)CC1 [Dovitinib] + COc1cc(Nc2ncc(F)c(Nc3ccc4c(n3)NC(=O)C(C)(C)O4)n2)cc(OC)c1OC [Tamatinib] (first compound 0.1 µM, partner dose 0.4 µM) | 254 | 80.7 | 102 | 82.4 | 138 | 74.9 | 170 | 96.9 | 115 | 120 | 84.3 | 67.4 | 139 | 63.4 | 103 | 45.9
5 | CC(C)C[C@H](NC(=O)[C@H](Cc1ccccc1)NC(=O)c1cnccn1)B(O)O [Bortezomib] + O=C(O)c1ccc(-c2c[nH]c3ncc(-c4ccccc4)cc23)cc1C1CCCC1 [GSK650394] (first compound 0.001 µM, partner dose 0.16 µM) | 304 | 60.1 | 254 | 53.7 | 40.6 | 116 | 69.3 | 237 | 145 | 87.7 | 146 | 650 | 158 | 70.3 | 493 | 99.4
6 | CS(=O)(=O)CCNCc1ccc(-c2ccc3ncnc(Nc4ccc(OCc5cccc(F)c5)c(Cl)c4)c3c2)o1 [lapatinib] + C[C@@H]1CCN(C(=O)CC#N)C[C@@H]1N(C)c1ncnc2[nH]ccc12 [CP690550] (first compound 0.8 µM, partner dose 1 µM) | 111 | 104 | 67.9 | 104 | 72.7 | 119 | 253 | 22.7 | 67.5 | 89.9 | 96.7 | 115 | 88.3 | 121 | 93.8 | 33.8
7 | O=C(O)[C@@H]1[O][Sb](=[O])([O][Sb]2(=[O])[O][C@H]([C@H](O)CO)[C@H](O)[C@H](C(=O)O)[O]2)[O][C@H]([C@H](O)CO)[C@@H]1O (stereo partly drawn) [stibogluconate] + CN(C)S(=O)(=O)c1ccc2c(c1)/C(=C/c1cc3c([nH]1)CCCC3)C(=O)N2 [SU6656] (first compound 2 µM, partner dose 0.4 µM) | 153 | 51.3 | 50.9 | 66.2 | 84.1 | 48.4 | 59 | 49.7 | 133 | 50.9 | 36.1 | 70.6 | 97.3 | 54 | 71.6 | 22.3
8 | O=C(O)[C@@H]1[O][Sb](=[O])([O][Sb]2(=[O])[O][C@H]([C@H](O)CO)[C@H](O)[C@H](C(=O)O)[O]2)[O][C@H]([C@H](O)CO)[C@@H]1O (stereo partly drawn) [stibogluconate] + c1cc(-c2cnn3cc(-c4ccc(OCCN5CCCCC5)cc4)cnc23)ccn1 [Dorsomorphin] (first compound 2 µM, partner dose 0.4 µM) | 62.5 | 18.5 | 26.7 | 139 | 115 | 19.1 | 35.1 | 83 | 114 | 107 | 87.8 | 61 | 86.2 | 120 | 79.7 | 74.1
9 | Cc1cc(Nc2cc(N3CCN(C)CC3)nc(/C=C/c3ccccc3)n2)n[nH]1 + CO[C@@H]1[C@H](N(C)C(=O)c2ccccc2)C[C@H]2O[C@]1(C)n1c3ccccc3c3c4c(c5c6ccccc6n2c5c31)C(=O)NC4 [Midostaurin] (first compound 0.04 µM, partner dose 0.08 µM) | 115 | 242 | 113 | 151 | 67.8 | 69.7 | 260 | 77.8 | 18.3 | 29.1 | 58.2 | 167 | 119 | 55.4 | 107 | 33.2
10 | CC(C)C[C@H](NC(=O)[C@H](Cc1ccccc1)NC(=O)c1cnccn1)B(O)O [Bortezomib] + COc1ccc2c(c1)CCC1C2CCC2(C)C(NCCCCCCN3C(=O)C=CC3=O)CCC12 [U73122] (first compound 0.001 µM, partner dose 0.4 µM) | 113 | 223 | 160 | 140 | 160 | 141 | 99.8 | 80.4 | 375 | 199 | 64.3 | 1150 | 144 | 40.1 | 501 | 247
11 | CN1CCN(c2ccc3nc(-c4c(N)c5c(F)cccc5[nH]c4=O)[nH]c3c2)CC1 [Dovitinib] + CC1(C)NC(=O)N(c2ccc([N+](=O)[O-])c(C(F)(F)F)c2)C1=O [nilutamide] (first compound 0.1 µM, partner dose 1 µM) | 83.4 | 69.2 | 52.4 | 138 | 128 | 67.3 | 256 | 289 | 52.8 | 72.7 | 136 | 8.35 | 88.9 | 158 | 94.8 | 40.5
12 | O=C(O)[C@@H]1[O][Sb](=[O])([O][Sb]2(=[O])[O][C@H]([C@H](O)CO)[C@H](O)[C@H](C(=O)O)[O]2)[O][C@H]([C@H](O)CO)[C@@H]1O (stereo partly drawn) [stibogluconate] + C[C@@H]1CCN(C(=O)CC#N)C[C@@H]1N(C)c1ncnc2[nH]ccc12 [CP690550] (first compound 2 µM, partner dose 1 µM) | 52.5 | 83.4 | 164 | 223 | 127 | 132 | 59.3 | 26 | 113 | 87.8 | 66 | 67.6 | 87.9 | 113 | 81.6 | 25.1
13 | CCCS(=O)(=O)Nc1ccc(F)c(C(=O)c2c[nH]c3ncc(Cl)cc23)c1F + COc1cc2ncnc(Nc3ccc(Oc4ccccc4)cc3)c2cc1OC [SrcI1] (first compound 0.08 µM, partner dose 2 µM) | 212 | 94.8 | 45.9 | 220 | 101 | 89 | 117 | 31.2 | 36.4 | 397 | 48.6 | 44.7 | 106 | 115 | 68.2 | 31.3
14 | Nc1ccn([C@@H]2O[C@H](CO)[C@@H](O)C2(F)F)c(=O)n1 [gemcitabine] + c1cc(-c2cnn3cc(-c4ccc(OCCN5CCCCC5)cc4)cnc23)ccn1 [Dorsomorphin] (first compound 0.0004 µM, partner dose 0.4 µM) | 159 | 84.8 | 23.4 | 79.3 | 10.4 | 59.1 | 34.8 | 41.9 | 151 | 70.5 | 44.7 | 43.1 | 125 | 145 | 134 | 151
15 | Cn1c(=O)n(-c2ccc(C(C)(C)C#N)cc2)c2c3cc(-c4cnc5ccccc5c4)ccc3ncc21 + COc1ccc2c(c1)CCC1C2CCC2(C)C(NCCCCCCN3C(=O)C=CC3=O)CCC12 [U73122] (first compound 0.004 µM, partner dose 0.4 µM) | 115 | 141 | 33.7 | 130 | 43.6 | 83 | 98.7 | 161 | 77 | 165 | 75.8 | 263 | 104 | 83.6 | 87.3 | 43.5
16 | CNC(=O)c1cc(Oc2ccc(NC(=O)Nc3ccc(Cl)c(C(F)(F)F)c3)cc2)ccn1 [sorafenib] + Oc1cc(-c2nc(-c3ccccc3)[nH]c2-c2ccncc2)ccc1Cl [L779450] (first compound 0.4 µM, partner dose 0.2 µM) | 85 | 86.6 | 140 | 75.9 | 114 | 61.1 | 371 | 77.7 | 41.9 | 137 | 145 | 71.4 | 110 | 203 | 106 | 35.5
17 | Cn1c(=O)n(-c2ccc(C(C)(C)C#N)cc2)c2c3cc(-c4cnc5ccccc5c4)ccc3ncc21 + Cc1cc(N2CCOCC2)cc2[nH]c(-c3c(NC[C@@H](O)c4cccc(Cl)c4)cc[nH]c3=O)nc12 [BMS536924] (first compound 0.004 µM, partner dose 0.2 µM) | 97.7 | 53.5 | 71.6 | 89 | 73.6 | 82 | 94.7 | 487 | 94.7 | 181 | 91.1 | 79.7 | 112 | 121 | 97.3 | 154
18 | CS(=O)(=O)CCNCc1ccc(-c2ccc3ncnc(Nc4ccc(OCc5cccc(F)c5)c(Cl)c4)c3c2)o1 [lapatinib] + COC(=O)c1sccc1S(=O)(=O)Nc1ccc(Nc2ccccc2)cc1OC [GSK0660] (first compound 0.8 µM, partner dose 1 µM) | 129 | 99.1 | 34.6 | 154 | 38 | 64.2 | 76.2 | 83.3 | 123 | 47.4 | 62.1 | 99.2 | 78.4 | 74.5 | 94.4 | 35.5

Individual results from above.
In cleaved PARP positive nuclei fraction (SkMel28) [%], CS(=O)(=O)CCNCc1ccc(-c2ccc3ncnc(Nc4ccc(OCc5cccc(F)c5)c(Cl)c4)c3c2)o1 [lapatinib] + C[C@@H]1CCN(C(=O)CC#N)C[C@@H]1N(C)c1ncnc2[nH]ccc12 [CP690550] (first compound 0.8 µM, partner dose 1 µM) has 72.7
In cleaved PARP positive nuclei fraction (SkMel30) [%], O=C(O)[C@@H]1[O][Sb](=[O])([O][Sb]2(=[O])[O][C@H]([C@H](O)CO)[C@H](O)[C@H](C(=O)O)[O]2)[O][C@H]([C@H](O)CO)[C@@H]1O (stereo partly drawn) [stibogluconate] + COc1cc(Nc2ncc(F)c(Nc3ccc4c(n3)NC(=O)C(C)(C)O4)n2)cc(OC)c1OC [Tamatinib] (first compound 2 µM, partner dose 0.4 µM) has 186
